The source of these data is PMC3765993, “The duration of sleep promoting efficacy by dual orexin receptor antagonists is dependent upon receptor occupancy threshold” (BMC Neuroscience, 2013).

“And” between values parts separate entries of the source, which are not always exact repeats. Equal entries are not always repeated.

The nature of one data set: in vivo. The settings on record: rhesus monkey, po, 10 mg/kg.
The subject of another data set is rhesus monkeys. Set-up: method as in PMID 23552372. To be noted: 10 mg/kg, active-phase dosing, quantified over 2 h; cited from earlier work.
The conditions of data set [1]: rhesus monkeys, 10 mg/kg p.o.

The term Cmax denotes the highest concentration seen after dosing. On to `CN1C(=O)CN=C(c2ccccc2)c2cc(Cl)ccc21` [Diazepam], for which the Cmax in the data set “in vivo” came to 775 nM. In addition, in the data set on rhesus monkeys, the “Attenuation of active wake relative to vehicle” value is reported as 38.4 min. The “Time of plasma Cmax” value in data set [1] was 1.0 h and 1 h.
